One substance from publication PMC7239659 can be followed below.

Sequences of proteins named here, by UniProt entry; tags and fusion partners are left off.
UniProt Q9NDJ2: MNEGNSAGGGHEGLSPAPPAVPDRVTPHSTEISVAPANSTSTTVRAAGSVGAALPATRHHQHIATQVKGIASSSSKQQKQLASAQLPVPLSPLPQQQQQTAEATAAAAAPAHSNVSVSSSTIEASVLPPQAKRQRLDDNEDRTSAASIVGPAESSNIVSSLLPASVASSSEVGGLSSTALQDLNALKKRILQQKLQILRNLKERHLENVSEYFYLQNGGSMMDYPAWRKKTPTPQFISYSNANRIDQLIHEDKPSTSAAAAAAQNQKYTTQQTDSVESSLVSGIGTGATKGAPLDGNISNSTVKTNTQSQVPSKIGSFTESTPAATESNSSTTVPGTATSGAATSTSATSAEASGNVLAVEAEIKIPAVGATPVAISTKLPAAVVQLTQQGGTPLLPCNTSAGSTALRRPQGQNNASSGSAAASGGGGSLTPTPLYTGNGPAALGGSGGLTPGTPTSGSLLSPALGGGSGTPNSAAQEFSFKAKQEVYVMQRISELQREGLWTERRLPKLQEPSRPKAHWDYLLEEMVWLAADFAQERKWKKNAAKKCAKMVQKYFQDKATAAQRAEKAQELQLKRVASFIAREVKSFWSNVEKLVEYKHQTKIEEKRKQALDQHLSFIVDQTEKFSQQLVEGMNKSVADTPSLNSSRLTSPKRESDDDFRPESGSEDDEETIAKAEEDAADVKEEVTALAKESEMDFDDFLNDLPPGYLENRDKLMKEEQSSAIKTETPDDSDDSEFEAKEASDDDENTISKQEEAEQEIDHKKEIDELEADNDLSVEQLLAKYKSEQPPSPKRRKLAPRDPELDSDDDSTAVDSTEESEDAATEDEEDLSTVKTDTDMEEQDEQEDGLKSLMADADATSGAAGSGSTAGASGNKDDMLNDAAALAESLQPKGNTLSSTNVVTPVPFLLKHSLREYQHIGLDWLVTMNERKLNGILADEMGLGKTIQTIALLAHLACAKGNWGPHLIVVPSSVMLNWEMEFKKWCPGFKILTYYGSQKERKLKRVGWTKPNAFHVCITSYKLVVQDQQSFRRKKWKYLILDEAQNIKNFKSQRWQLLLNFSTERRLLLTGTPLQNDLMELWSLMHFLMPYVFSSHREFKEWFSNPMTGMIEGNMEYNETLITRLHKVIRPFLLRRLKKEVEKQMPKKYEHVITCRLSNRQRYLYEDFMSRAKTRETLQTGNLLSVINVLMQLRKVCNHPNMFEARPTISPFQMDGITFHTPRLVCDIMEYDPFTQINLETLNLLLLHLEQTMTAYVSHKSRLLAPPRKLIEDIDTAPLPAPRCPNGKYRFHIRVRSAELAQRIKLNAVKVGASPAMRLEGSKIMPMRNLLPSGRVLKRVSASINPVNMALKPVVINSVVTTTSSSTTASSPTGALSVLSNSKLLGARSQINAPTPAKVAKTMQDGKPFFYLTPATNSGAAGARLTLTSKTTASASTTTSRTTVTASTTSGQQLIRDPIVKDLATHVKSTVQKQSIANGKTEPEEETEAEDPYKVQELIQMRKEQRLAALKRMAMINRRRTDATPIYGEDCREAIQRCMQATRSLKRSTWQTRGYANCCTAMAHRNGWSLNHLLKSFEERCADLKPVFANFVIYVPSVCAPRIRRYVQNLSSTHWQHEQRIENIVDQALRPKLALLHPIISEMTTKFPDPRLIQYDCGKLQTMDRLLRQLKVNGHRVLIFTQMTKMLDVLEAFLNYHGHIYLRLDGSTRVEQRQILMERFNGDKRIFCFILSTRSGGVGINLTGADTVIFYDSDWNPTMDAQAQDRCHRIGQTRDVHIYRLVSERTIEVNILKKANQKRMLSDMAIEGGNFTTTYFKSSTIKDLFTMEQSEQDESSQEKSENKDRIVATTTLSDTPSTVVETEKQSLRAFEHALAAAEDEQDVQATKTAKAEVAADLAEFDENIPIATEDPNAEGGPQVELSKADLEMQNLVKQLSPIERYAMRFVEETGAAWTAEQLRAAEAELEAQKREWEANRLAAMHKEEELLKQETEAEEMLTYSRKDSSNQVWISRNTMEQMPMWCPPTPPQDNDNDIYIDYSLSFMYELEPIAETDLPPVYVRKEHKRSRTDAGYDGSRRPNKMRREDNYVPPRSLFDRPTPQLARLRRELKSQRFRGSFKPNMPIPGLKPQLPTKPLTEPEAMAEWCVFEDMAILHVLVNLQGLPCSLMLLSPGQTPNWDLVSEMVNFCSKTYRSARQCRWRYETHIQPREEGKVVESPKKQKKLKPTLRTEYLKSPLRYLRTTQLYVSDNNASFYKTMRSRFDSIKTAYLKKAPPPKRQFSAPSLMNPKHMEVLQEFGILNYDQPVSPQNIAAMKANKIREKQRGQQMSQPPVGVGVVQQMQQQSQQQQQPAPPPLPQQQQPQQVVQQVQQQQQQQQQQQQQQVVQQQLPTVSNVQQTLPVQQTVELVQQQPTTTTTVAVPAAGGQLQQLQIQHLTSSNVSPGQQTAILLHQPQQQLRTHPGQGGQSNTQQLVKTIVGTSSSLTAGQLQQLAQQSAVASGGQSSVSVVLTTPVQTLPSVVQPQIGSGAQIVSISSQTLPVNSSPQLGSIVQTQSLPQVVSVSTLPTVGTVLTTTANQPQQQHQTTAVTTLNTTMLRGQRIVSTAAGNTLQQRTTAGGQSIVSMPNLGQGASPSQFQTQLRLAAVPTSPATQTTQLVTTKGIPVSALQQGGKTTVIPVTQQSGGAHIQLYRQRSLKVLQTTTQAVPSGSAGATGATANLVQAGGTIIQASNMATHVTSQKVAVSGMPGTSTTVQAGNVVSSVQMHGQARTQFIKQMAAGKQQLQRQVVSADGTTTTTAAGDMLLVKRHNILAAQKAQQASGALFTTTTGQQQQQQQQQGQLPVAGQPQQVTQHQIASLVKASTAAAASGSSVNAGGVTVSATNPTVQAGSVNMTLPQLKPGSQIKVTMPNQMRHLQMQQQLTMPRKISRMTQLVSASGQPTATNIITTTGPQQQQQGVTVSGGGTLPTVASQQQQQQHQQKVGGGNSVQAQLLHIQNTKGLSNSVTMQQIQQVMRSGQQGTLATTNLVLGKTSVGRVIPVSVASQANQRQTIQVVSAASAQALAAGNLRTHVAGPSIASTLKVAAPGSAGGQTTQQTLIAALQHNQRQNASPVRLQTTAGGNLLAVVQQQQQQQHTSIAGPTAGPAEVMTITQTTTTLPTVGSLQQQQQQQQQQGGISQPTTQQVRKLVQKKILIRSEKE
UniProt Q960X4: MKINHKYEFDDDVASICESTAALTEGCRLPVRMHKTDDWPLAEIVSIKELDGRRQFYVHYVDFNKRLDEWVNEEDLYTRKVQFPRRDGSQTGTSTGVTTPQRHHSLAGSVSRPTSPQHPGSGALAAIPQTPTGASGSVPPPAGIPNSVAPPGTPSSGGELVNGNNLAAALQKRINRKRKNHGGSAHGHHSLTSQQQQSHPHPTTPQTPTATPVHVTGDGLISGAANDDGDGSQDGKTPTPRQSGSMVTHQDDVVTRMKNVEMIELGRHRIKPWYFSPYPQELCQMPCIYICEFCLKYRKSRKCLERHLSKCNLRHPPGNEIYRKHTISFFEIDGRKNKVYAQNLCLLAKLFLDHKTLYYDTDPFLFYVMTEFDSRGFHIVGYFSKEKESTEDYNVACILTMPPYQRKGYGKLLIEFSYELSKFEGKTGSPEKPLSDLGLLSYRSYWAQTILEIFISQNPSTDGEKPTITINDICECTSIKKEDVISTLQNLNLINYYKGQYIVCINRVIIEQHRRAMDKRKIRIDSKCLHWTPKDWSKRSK

These are yes or no findings as the source states them, for the method shown. In cells and extracts the contact can be indirect. Some binding calls cover weakened binding; strength is not graded here.

The target in this experiment is DOM-A (DOMINO isoform A, DOM-RA), endogenously 3XFLAG-tagged (D. melanogaster (endogenous in S2 cells)) (UniProt Q9NDJ2). Description: co-IP; FLAG-m2 beads on nuclear extract of S2 cells with endogenously 3XFLAG-tagged DOM-A or DOM-B (untagged cells as control), Protein-RIPA buffer, Benzonase, 3 hr at 4°C; western blot. (Immunoblotting shows a protein as a band on a membrane.)

Turning to “TIP60 (from UniProt Q960X4 1-541) (enzyme)”, the binding result is “binds”.
